# Measurements: PubChem BioAssay (NCATS)
# Several values for one entry are separate records, joined by “and”; a condition that tells them apart may be missing. Equal entries are not always repeated. The list shows a part of the results. Shown are side measurements of this screen, not its main read-out; they come without a call. Most of these compounds were active or inconclusive in the main read-out, so they are no random draw. Words in brackets tell the shape of the fitted curve; partial curves, single points and poor fits give uncertain potencies.
# Assay: qHTS assay for small molecule antagonists of vitamin D receptor signaling (AID 588541)
# Details: HEK293T VDR-UAS-bla, beta-lactamase ratio, antagonist mode; measured here: W460 blue channel (cell viability)
row,SMILES,AC50
1,Cc1cc(Cc2cc(C)cc(C(C)(C)C)c2O)c(O)c(C(C)(C)C)c1,"50.1 µM [falling, single point]"
2,Cc1ccc(S(=O)(=O)C(I)I)cc1,"25.1 µM [falling, full curve]"
3,CCC(C)Nc1ccc(NC(C)CC)cc1 (stereo not given),"10 µM [falling, full curve, poor fit] and 25.1 µM [falling, full curve]"
4,C[C@@H]1CC2(OC(O)[C@]3(C)O[C@H]23)O[C@H]2C[C@@]3(C)[C@@H]4CC[C@H]5C(C)(C)C(O[C@@H]6OC[C@@H](O)[C@H](O)[C@H]6O)CC[C@@]56C[C@@]46CC[C@]3(C)[C@@H]12 (stereo not given in full),"7.94 µM [rising, full curve, poor fit]"
5,O=C(OCC(COC(=O)c1ccccc1)(COC(=O)c1ccccc1)COC(=O)c1ccccc1)c1ccccc1,"35.5 µM [falling, partial curve, poor fit]"
6,CC(=O)Nc1ccc(C(=O)CCl)cc1,"22.4 µM [falling, full curve, poor fit] and 25.1 µM [falling, full curve, poor fit]"
7,CC(C)CCCCCCc1ccc(OCCOCCO)cc1,"50.1 µM [falling, single point]"
8,CC(=O)S[C@@H]1CC2=CC(=O)CC[C@]2(C)[C@H]2CC[C@@]3(C)[C@@H](CC[C@@]34CCC(=O)O4)[C@H]12,"44.7 µM [falling, partial curve, poor fit]"
9,C=CC(=O)OCCCCCCOC(=O)C=C,"39.8 µM [falling, partial curve, poor fit]"
10,O=C1c2c(O)ccc([N+](=O)[O-])c2C(=O)c2c([N+](=O)[O-])ccc(O)c21,"25.1 µM [falling, full curve, poor fit]"
11,C[C@@H]1CC2(OC[C@]3(C)O[C@H]23)O[C@H]2C[C@@]3(C)[C@@H]4CC[C@H]5C(C)(C)C(O[C@@H]6OC[C@@H](O)[C@H](O)[C@H]6O)CC[C@@]56C[C@@]46CC[C@]3(C)[C@@H]12 (stereo not given in full),"31.6 µM [rising, partial curve, poor fit]"
12,O=C(O)CN(CCCN(CC(=O)O)CC(=O)O)CC(=O)O,"15.8 µM [falling, full curve, poor fit]"
13,C=CC(=O)OCCOCC(CC)(COCCOC(=O)C=C)COCCOC(=O)C=C,"31.6 µM [falling, partial curve]"
14,Cc1cc(O)c(C(C)(C)C)cc1Sc1cc(C(C)(C)C)c(O)cc1C,"50.1 µM [falling, single point]"
15,CO/N=C1\C[C@]2(C[C@@H]3C[C@@H](C/C=C(\C)C[C@@H](C)/C=C/C=C4\CO[C@@H]5[C@H](O)C(C)=C[C@@H](C(=O)O3)[C@]45O)O2)O[C@H](/C(C)=C/C(C)C)[C@H]1C,"22.4 µM [falling, full curve]"

# A second format for part of the listing above.
row | SMILES | AC50
10 | O=C1c2c(O)ccc([N+](=O)[O-])c2C(=O)c2c([N+](=O)[O-])ccc(O)c21 | 25.1 µM [falling, full curve, poor fit]
11 | C[C@@H]1CC2(OC[C@]3(C)O[C@H]23)O[C@H]2C[C@@]3(C)[C@@H]4CC[C@H]5C(C)(C)C(O[C@@H]6OC[C@@H](O)[C@H](O)[C@H]6O)CC[C@@]56C[C@@]46CC[C@]3(C)[C@@H]12 (stereo not given in full) | 31.6 µM [rising, partial curve, poor fit]
